Paper PMC7918530
Results are given in words; binding and its absence hold for the method and conditions named. Binding seen in cells or lysates may run through a third protein. Some results given as binding are weak or reduced against the parent protein; the word gives no strength.

The chains behind the UniProt entries cited, without tags or fusion partners.
UniProt Q9QZ81: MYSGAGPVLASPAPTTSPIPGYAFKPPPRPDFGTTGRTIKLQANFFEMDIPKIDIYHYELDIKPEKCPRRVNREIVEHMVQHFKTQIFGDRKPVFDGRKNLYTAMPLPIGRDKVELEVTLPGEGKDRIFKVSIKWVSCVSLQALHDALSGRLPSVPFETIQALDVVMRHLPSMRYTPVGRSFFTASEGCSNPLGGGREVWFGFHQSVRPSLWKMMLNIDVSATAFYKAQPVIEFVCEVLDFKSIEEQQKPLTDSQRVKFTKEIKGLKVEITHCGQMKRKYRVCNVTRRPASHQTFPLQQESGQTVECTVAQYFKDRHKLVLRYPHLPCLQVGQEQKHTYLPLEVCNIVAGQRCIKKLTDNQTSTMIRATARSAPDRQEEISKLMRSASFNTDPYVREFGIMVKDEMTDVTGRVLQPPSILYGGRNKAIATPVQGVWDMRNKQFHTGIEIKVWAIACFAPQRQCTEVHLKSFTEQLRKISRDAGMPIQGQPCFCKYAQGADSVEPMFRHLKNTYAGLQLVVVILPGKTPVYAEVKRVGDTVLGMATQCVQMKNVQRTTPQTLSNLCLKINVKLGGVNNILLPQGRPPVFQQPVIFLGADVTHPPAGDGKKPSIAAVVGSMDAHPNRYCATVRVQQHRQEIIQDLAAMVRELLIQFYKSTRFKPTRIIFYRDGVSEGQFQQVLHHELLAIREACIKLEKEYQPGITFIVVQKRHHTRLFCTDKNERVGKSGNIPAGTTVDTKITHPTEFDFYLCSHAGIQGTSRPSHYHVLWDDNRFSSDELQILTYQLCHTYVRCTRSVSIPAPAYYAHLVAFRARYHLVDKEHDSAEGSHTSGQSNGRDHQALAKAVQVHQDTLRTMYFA
UniProt O09032: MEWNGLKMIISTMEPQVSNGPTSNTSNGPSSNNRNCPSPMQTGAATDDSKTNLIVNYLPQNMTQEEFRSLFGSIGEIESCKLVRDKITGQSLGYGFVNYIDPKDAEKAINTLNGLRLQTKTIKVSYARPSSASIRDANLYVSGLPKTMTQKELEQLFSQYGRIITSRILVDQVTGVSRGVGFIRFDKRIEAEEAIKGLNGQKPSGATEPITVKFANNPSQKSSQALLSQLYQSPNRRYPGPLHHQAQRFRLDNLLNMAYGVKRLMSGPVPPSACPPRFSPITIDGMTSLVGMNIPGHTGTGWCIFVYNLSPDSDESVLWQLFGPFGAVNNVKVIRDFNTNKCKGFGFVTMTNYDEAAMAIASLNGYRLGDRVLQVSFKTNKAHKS

Target: T1, Upf1 (rat (endogenous in PC12 cells and sympathetic neurons))
T1 sequence: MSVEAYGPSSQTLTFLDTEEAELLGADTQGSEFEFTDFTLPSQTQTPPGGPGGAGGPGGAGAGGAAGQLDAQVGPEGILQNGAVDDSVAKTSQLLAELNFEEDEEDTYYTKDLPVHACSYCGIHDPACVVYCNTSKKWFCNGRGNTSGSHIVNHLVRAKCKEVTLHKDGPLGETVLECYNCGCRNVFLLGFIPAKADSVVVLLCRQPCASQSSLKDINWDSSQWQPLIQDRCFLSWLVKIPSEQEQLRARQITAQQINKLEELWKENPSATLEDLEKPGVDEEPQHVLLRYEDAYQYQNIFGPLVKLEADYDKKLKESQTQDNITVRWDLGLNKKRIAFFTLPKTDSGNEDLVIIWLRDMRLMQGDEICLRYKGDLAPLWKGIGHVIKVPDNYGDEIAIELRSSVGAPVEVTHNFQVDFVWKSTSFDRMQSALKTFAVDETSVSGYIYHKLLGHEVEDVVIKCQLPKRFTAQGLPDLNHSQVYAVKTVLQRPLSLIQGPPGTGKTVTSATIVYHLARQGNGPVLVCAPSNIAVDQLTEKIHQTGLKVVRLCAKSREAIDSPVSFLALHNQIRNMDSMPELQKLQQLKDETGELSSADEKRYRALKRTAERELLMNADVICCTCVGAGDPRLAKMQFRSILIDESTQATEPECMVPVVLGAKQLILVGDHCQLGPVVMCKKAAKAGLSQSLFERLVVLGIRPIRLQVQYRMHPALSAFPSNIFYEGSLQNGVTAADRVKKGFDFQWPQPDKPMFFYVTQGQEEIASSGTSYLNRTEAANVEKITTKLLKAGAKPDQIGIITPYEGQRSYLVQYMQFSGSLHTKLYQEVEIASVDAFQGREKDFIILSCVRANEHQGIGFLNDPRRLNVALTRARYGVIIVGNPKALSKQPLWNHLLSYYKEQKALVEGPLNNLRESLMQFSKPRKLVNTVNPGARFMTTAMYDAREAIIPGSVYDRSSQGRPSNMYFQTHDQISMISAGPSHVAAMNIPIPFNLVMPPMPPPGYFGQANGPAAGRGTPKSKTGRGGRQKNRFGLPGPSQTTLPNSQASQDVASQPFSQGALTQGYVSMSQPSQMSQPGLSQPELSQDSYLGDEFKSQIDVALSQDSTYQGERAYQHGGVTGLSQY
Assay: co-IP; sympathetic neurons lysed in RIPA buffer; 0.5-1 mg pre-cleared lysate with 2 ug antibody overnight at 4°C, protein A-agarose beads, washes with RIPA buffer, western blot

Substance | binding
Argonaute 2 (Ago2) (from UniProt Q9QZ81 1-860) | binds
ELAV-like protein 4 (HuD) (from UniProt O09032 1-385) | binds
